The list shows a part of the results.
system: T1, CTL2-GFP (C. trachomatis L2/434/Bu, GFP-expressing); design: species or system HeLa; Intracellular C. trachomatis growth in HeLa cells, bulk GFP fluorescence relative to DMSO; conditions: bulk GFP, single well; 28.5 h, 10 µM; inhibitor
T1 construct: L2/434/Bu, GFP-expressing

SMILES	% of control remaining [%]
CC1(C)Cc2nc(N3CCOCC3)ncc2C(NC(=O)C2CCC2)C1 (stereo not shown) [CBK306943]	136.023
CCOC(=O)N1CCN(CC(=O)Nc2cc3c(cc2C(C)=O)OCO3)CC1 [CBK266163]	148.858
O=C1CCCN1CP(=O)(O)CN1CCCCC1 [CBK262302]	128.681
COc1ccc(Nc2cc(Cl)ccc2C(=O)Nc2ccncc2)cn1 [CBK107434]	77.1614
O=C(NCc1cccnc1)c1ccc(-c2ccoc2)nc1 [CBK156275]	153.065
CCCc1c(C(=O)NCCCN(C)C)cnn1-c1cc(Cl)cc(Cl)c1 [CBK107376]	148.662
COc1cccc(NC(=O)c2sc(N)nc2-c2ccccc2)c1 [CBK072023]	122.645
O=C(Nc1nnc(C(F)(F)F)s1)c1cc(Cl)ccc1Cl [CBK095734]	77.3334
OC(CN1CCC2(CC1)CC(O)c1ccccc1O2)c1ccc(-c2ccccc2)cc1 (stereo not shown) [CBK286347]	89.5561
CCOc1nccnc1N1CCNCC1 [CBK001899G]	117.795
O=C(NCCc1cccs1)Nc1ccc(Cl)c(C(F)(F)F)c1 [CBK043775]	77.7628
CC1CCN(Cc2ccc(-c3cn(CC(=O)NCc4ccc(Br)cc4F)nn3)cc2)CC1 [CBK165756C]	136.659
COc1ccc(CC(=O)N2CCC(c3cccc(Cc4cccc(F)c4)n3)CC2)cc1 [CBK286504]	126.182
O=C(c1cc[nH]n1)N1CCC2(CC1)Nc1ccccc1-n1cccc12 [CBK283652]	106.193
Cc1cccn2c(CN3CCC(O)CC3)c(C(=O)N3CCOCC3)nc12 [CBK306546]	124.231
O=C(CN1CCN(Cc2ccc3c(c2)OCO3)CC1)Nc1ccc(SC(F)(F)F)cc1 [CBK074385]	111.15
O=C1C2CCCCC2C(=O)N1CCCN1CCC(c2nc(-c3ccc(F)cc3)c3ccccn23)CC1 (stereo not shown) [CBK035972]	100
CCCCCC1=NN(C(=O)OCC)C(O)(C(F)(F)F)C1 (stereo not shown) [CBK027739]	141.559
O=C(O)c1cccc(N(CCO)CCO)c1 [CBK262419]	117.517
FC(F)(F)Oc1cccc(-c2cn3ccnc3c(NCCc3ccccn3)n2)c1 [CBK038017]	215.398
CN(CCC1CCN(c2ccncc2)CC1)C(=O)c1cc2sccc2[nH]1 [CBK305468]	123.376
CCc1nc2cccnc2n1CCNC(=O)Cc1cccs1 [CBK283639]	112.772
COc1ccc([C@@]23CC[C@@H](C(=O)Nc4ccc(C(F)(F)F)cn4)C[C@@H]2N(C)CC3)cc1OC [CBK046310T]	113.293
CCOC(=O)C1(C2CCCCC2)CCN(C(=O)c2ccc(OC(F)(F)F)cc2)CC1 [CBK136921]	99.0205
CCOc1ccc(N)cc1S(N)(=O)=O [CBK010112]	109.763
CN(Cc1ccccc1)C(=O)c1c[nH]nc1C1CCCN(CC2CCCCC2)C1 (stereo not shown) [CBK286489]	116.227
COc1ccc2c(c1)c(CN1CCCN(S(=O)(=O)c3ccc(-c4ccccc4)cc3)CC1)cn2C [CBK063125]	121.016

SMILES	% of control remaining [%]
O=C(c1ccc2[nH]ccc2c1)N1CCCC1 [CBK149074]	91.7953
CCOc1ccc(Cl)cc1CN(C)C(=O)NCC(c1ccco1)N(C)C (stereo not shown) [CBK307013]	130.8
CC(=O)c1ccc(-c2nc(NC(=O)CC#N)cnc2-c2ccc(F)c(Cl)c2)s1 [CBK036841]	97.3546
O=C(Nc1c[nH]c(=O)[nH]c1=O)c1ccc(Oc2ccc(C(=O)Nc3c[nH]c(=O)[nH]c3=O)cc2)cc1 [CBK261184]	99.6085
COc1ccc(C(NC(=O)c2ccc(N3C(=O)CCC3=O)cc2)c2ccccc2)cc1 (stereo not shown) [CBK285737]	121.048
NC(=O)CCN(CCC(N)=O)S(=O)(=O)c1ccc(N)cc1 [CBK262134]	109.985
CN1CCN(C(=O)COc2ccc(S(=O)(=O)Nc3ccc(Cl)cc3)cc2)CC1 [CBK268248]	124.635
CC(CNC(=O)COc1ccc2ccccc2c1Br)CN(C)C (stereo not shown) [CBK267369]	158.049
N=c1n(CCCOc2ccc(Br)cc2)c2ccccc2n1CC(N)=O [CBK268786C]	87.1677
CCOC(=O)c1cnn(C2CCCN(Cc3cc[nH]n3)C2)c1 (stereo not shown) [CBK305125]	132.568
Nc1ncnc(NCCc2ccc(Cl)cc2)c1[N+](=O)[O-] [CBK267351]	171.003
O=C(CCc1ccccc1)Nc1cccc2nsnc12 [CBK265680]	100
O=C(O)c1ccc(NS(=O)(=O)c2ccc(Cl)cc2)cc1O [CBK200023]	111.947
O=S(=O)(NCCc1csc(-c2cccnc2)n1)c1cccnc1 [CBK287546]	100.512
Cc1ccc(C)c(NC(=O)CCc2c(C)nn3cnnc3c2C)c1 [CBK304358]	102.038
Cc1ccc(S(=O)(=O)N2C(=O)CCC2C(=O)O/N=C(\N)c2cccnc2)cc1 (stereo not shown) [CBK266864]	125.77
CC1(C)Cc2c(ccc3ccccc23)C(NC(Cc2c[nH]c3ccccc23)C(=O)O)=N1 (stereo not shown) [CBK262569]	111.152
COC(=O)c1sccc1NS(=O)(=O)c1ccc(C(F)(F)F)cc1[N+](=O)[O-] [CBK004510]	119.333
CCN(CC)CCCNc1nccc(-c2cn(C)nc2C)n1 [CBK306654]	95.1467
O=c1c2[nH]c3ccccc3c2ncn1Cc1ccccc1 [CBK287809]	114.624
Cc1nccn1CC1(O)CCN(C(=O)C(C)c2ccccc2)CC1 (stereo not shown) [CBK285388]	105.354
O=S(=O)(c1ccc(Cl)cc1)N1CCN(CC(O)Cn2c3ccccc3c3ccccc32)CC1 (stereo not shown) [CBK264383]	113.289
Cc1cc(NC(=O)c2cc(Cl)ccc2[N+](=O)[O-])nc2c1c(=O)oc1ccccc12 [CBK291248]	131.512
COc1cccc([C@H]2CN(C(C)=O)[C@@H]3CCN(C4CCCC4)C[C@H]23)c1 [CBK283375]	139.802
CC(=O)N1CCCc2cc(C(O)CN3CCCC(C)C3)ccc21 (stereo not shown) [CBK282142]	148.106
CCCCCCN1CCN(c2nccn(CCOc3cc(F)c(F)cc3F)c2=O)CC1 [CBK045889C]	118.683
O=C(NCc1ccccc1)c1ccc(N2CCOCC2)nc1 [CBK200244]	179.531

SMILES	% of control remaining [%]
CSCCC(C(=O)O)N1C(=O)c2ccccc2C1=O (stereo not shown) [CBK218448]	92.7144
Cc1cc(C)c2c(N)c(C(=O)Nc3ccc(Br)cc3)sc2n1 [CBK072019]	49.542
CC(Sc1ncc(-c2ccc(F)cc2)n1Cc1ccccc1)C(=O)NC1CC1 (stereo not shown) [CBK297105]	82.6703
CCN1CCN(c2nccnc2OCc2cccnc2)CC1 [CBK083142]	87.9166
O=C(CN1C(=O)N2CCN=C2c2ccc(Cl)cc21)NCC1CC1 [CBK282877]	112.145
COc1ccc(OC)c(NC(=O)CC2NCCNC2=O)c1 (stereo not shown) [CBK266477]	103.291
O=C(CSc1nnc2ccccn12)Nc1ccccc1 [CBK287328]	93.5926
CCOc1cc(CN2CCN(C/C=C/c3ccccc3)CC2)ccc1OC [CBK261573]	110.719
COc1ccccc1-c1ccc(CC2(C(=O)NC3CCCCC3)CCOCC2)cc1 [CBK286515]	109.543
COc1cc(CNc2nc[nH]n2)ccc1OCc1ccc(C)cc1 [CBK269768]	94.9267
Fc1ccc(-c2nccnc2OCc2ccc3c(c2)OCO3)cc1 [CBK106896]	121.284
CC(C(=O)NC1(C#N)CCCCC1)N1CCOC(Cn2cccn2)C1 (stereo not shown) [CBK305337]	120.051
COc1ccc(CSCc2n[nH]c(=O)[nH]2)cc1[N+](=O)[O-] [CBK267425]	126.757
COC[C@H]1CCCN1C(=O)Cn1[nH]c(C)c(Cc2c(Cl)cccc2Cl)c1=O [CBK115407]	99.9077
CCOC(=O)c1sc(-c2cccc(C(F)(F)F)c2)nc1O [CBK075064]	89.3842
COc1ccc(-c2csc(NC(=O)C(C)C)c2C(=O)O)cc1 [CBK286622]	133.192
FC(F)(F)c1ccc2c(c1)N(CCCN1CCN(C34CC5CC(CC(C5)C3)C4)CC1)c1ccccc1S2 [CBK261938]	126.833
C=CCn1cc(CN2CCC(O)(c3ccccc3C)CC2)c(C)n1 [CBK282581]	115.27
c1csc(CNc2cncc(-c3ccncc3)n2)c1 [CBK065238]	104.82
CC(C)n1cccc1CN[C@@H]1CCC(=O)N[C@H]1c1cccc(F)c1 [CBK282908]	100.952
COCCCNC(=O)Cn1c(-c2ccc(F)cc2)cc2cccnc21 [CBK285385]	106.533
N#CCCn1cc(C(=O)n2nnc3ccccc32)c(-c2cc3ccccc3o2)n1 [CBK268073]	105.165
COc1ccc(C(=O)OC(C)(C)C)c(-c2nccnc2N2CCCN(C)CC2)c1 [CBK037360]	193.806
Cc1csc2ncc(C(=O)NCc3ccccc3)c(=O)n12 [CBK287290]	92.2193
COc1ccc(S(=O)(=O)Nc2ccccc2C(=O)O)cc1C(=O)O [CBK264084]	126.197

Single values from the results shown.
Entry of CC1(C)Cc2c(ccc3ccccc23)C(NC(Cc2c[nH]c3ccccc23)C(=O)O)=N1 (stereo not shown) [CBK262569] under % of control remaining [%]: 111.152
Entry of O=C(Nc1c[nH]c(=O)[nH]c1=O)c1ccc(Oc2ccc(C(=O)Nc3c[nH]c(=O)[nH]c3=O)cc2)cc1 [CBK261184] under % of control remaining [%]: 99.6085
Entry of N=c1n(CCCOc2ccc(Br)cc2)c2ccccc2n1CC(N)=O [CBK268786C] under % of control remaining [%]: 87.1677
Entry of FC(F)(F)Oc1cccc(-c2cn3ccnc3c(NCCc3ccccn3)n2)c1 [CBK038017] under % of control remaining [%]: 215.398

Reference: PMC12040169 (PLOS Biology, 2025)
